# Test results as given in the supplement of paper PMC8728848.
# Some of the results follow.
# B1: PX9961Q-bfa-504-27-504 (Bacteroides fragilis) (protein)
# chain: NDWLDRKPADGIPSEDAITNYNDALTARTGMYDGIQGNSNATSYYGARMFYYGDVRADDMQARTQGMRSSSCYEMLYTVDDAPNMWNIPYNVIRRANRLIEAINEKKVTDATEAQIGKIYSEALVVRALVHFDLVRIYGMPYTADNGASLGVPVIVKPLERNDLPSRNTVAEVYTQVITDLTDAINSGYLAKDQTPGYINEWAAKALLTRVYLTKGDNENALKVAEDIITNSPYKLWTNEEYVNAWYKSNGAHTNEMIFEVVNASNDDWTDRNGIAYLLNENGYADAIVTKSFMNMLSQDPKDVRIGMVLPAQYDKDLQEEYGDAKIFINKFPADKDDVGEMRLNNLPLLRLSEVYLSAAEAAAKLGGHQDKAAKYLNEIVQRANPEAKAISEADATVERIILERRKEMIGEGQRYFDALRNNETIVRYKDEGDKGYHYSLIKESQSFDRTYFRAILPIPVDETNVNPNLRAQQNPGY
# Key:
# Test in all cases: glycan array binding signal (z-score within array); higher = stronger binding
# Conditions in all cases: glycan notation: IUPAC condensed, linker removed
# [1] = target: Gal(b1-3)GalNAc(b1-3)Gal(a1-4)Gal(b1-4)Glc
# Procedure, shortened: (§1)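 Glycan array binding is given as a within-array Z-score, which can be read as non-binding when negative. The arrays, 3228 of them, came from the Consortium for Functional Glycomics database and were retained only where the protein sequence was available. Z-scores were averaged across arrays of the same protein sequence at different concentrations or buffers and across linkers.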
# [2] = target: Gal(b1-3)GalNAc(b1-4)Gal(b1-4)Glc
# Procedure, shortened: as §1
# [3] = target: Gal(b1-3)GalNAc(b1-4)[Neu5Ac(a2-3)]Gal(b1-4)Glc
# Procedure, shortened: as §1
# Gal(b1-3)GlcNAc = target: Gal(b1-3)GlcNAc
# Procedure, shortened: as §1
# [4] = target: Gal(b1-3)GlcNAc(a1-3)Gal(b1-4)GlcNAc
# Procedure, shortened: as §1
# [5] = target: Gal(b1-3)GlcNAc(a1-6)Gal(b1-4)GlcNAc
# Procedure, shortened: as §1
# Gal(b1-3)GlcNAc(b1-2)Man = target: Gal(b1-3)GlcNAc(b1-2)Man
# Procedure, shortened: as §1
# [6] = target: Gal(b1-3)GlcNAc(b1-2)Man(a1-3)[Gal(b1-3)GlcNAc(b1-2)Man(a1-6)]Man(b1-4)GlcNAc(b1-4)GlcNAc
# Procedure, shortened: as §1
# [7] = target: Gal(b1-3)GlcNAc(b1-2)Man(a1-3)[Gal(b1-3)GlcNAc(b1-2)Man(a1-6)]Man(b1-4)GlcNAc(b1-4)[Fuc(a1-6)]GlcNAc
# Procedure, shortened: as §1
# [8] = target: Gal(b1-3)GlcNAc(b1-2)Man(a1-3)[GlcNAc(b1-4)][Gal(b1-3)GlcNAc(b1-2)Man(a1-6)]Man(b1-4)GlcNAc(b1-4)GlcNAc
# Procedure, shortened: as §1
# [9] = target: Gal(b1-3)GlcNAc(b1-2)[Gal(b1-3)GlcNAc(b1-6)]Man(a1-6)[Gal(b1-3)GlcNAc(b1-2)Man(a1-3)]Man(b1-4)GlcNAc(b1-4)GlcNAc
# Procedure, shortened: as §1
# [10] = target: Gal(b1-3)GlcNAc(b1-3)Gal(b1-3)GlcNAc
# Procedure, shortened: as §1
# [11] = target: Gal(b1-3)GlcNAc(b1-3)Gal(b1-4)Glc
# Procedure, shortened: as §1
# [12] = target: Gal(b1-3)GlcNAc(b1-3)Gal(b1-4)GlcNAc
# Procedure, shortened: as §1
# [13] = target: Gal(b1-3)GlcNAc(b1-3)Gal(b1-4)GlcNAc(b1-2)Man(a1-3)[Gal(b1-3)GlcNAc(b1-3)Gal(b1-4)GlcNAc(b1-2)Man(a1-6)]Man(b1-4)GlcNAc(b1-4)GlcNAc
# Procedure, shortened: as §1
# [14] = target: Gal(b1-3)GlcNAc(b1-3)Gal(b1-4)GlcNAc(b1-2)[Gal(b1-3)GlcNAc(b1-3)Gal(b1-4)GlcNAc(b1-6)]Man(a1-6)[Gal(b1-3)GlcNAc(b1-3)Gal(b1-4)GlcNAc(b1-2)Man(a1-3)]Man(b1-4)GlcNAc(b1-4)[Fuc(a1-6)]GlcNAc
# Procedure, shortened: as §1
# [15] = target: Gal(b1-3)GlcNAc(b1-3)Gal(b1-4)GlcNAc(b1-3)Gal(b1-4)GlcNAc(b1-2)[Gal(b1-3)GlcNAc(b1-3)Gal(b1-4)GlcNAc(b1-3)Gal(b1-4)GlcNAc(b1-6)]Man(a1-6)[Gal(b1-3)GlcNAc(b1-3)Gal(b1-4)GlcNAc(b1-3)Gal(b1-4)GlcNAc(b1-2)Man(a1-3)]Man(b1-4)GlcNAc(b1-4)[Fuc(a1-6)]GlcNAc
# Procedure, shortened: as §1
# [16] = target: Gal(b1-3)GlcNAc(b1-3)Gal(b1-4)GlcNAc(b1-6)[Gal(b1-3)GlcNAc(b1-3)]Gal(b1-4)Glc
# Procedure, shortened: as §1
# [17] = target: Gal(b1-3)GlcNAc(b1-3)Gal(b1-4)[Fuc(a1-3)]GlcNAc
# Procedure, shortened: as §1
# [18] = target: Gal(b1-3)GlcNAc(b1-3)Gal(b1-4)[Fuc(a1-3)]GlcNAc(b1-6)[Gal(b1-3)GlcNAc(b1-3)]Gal(b1-4)Glc
# Procedure, shortened: as §1
# [19] = target: Gal(b1-3)GlcNAc(b1-3)GalNAc
# Procedure, shortened: as §1
# [20] = target: Gal(b1-3)GlcNAc(b1-6)Gal(b1-4)GlcNAc
# Procedure, shortened: as §1
# [21] = target: Gal(b1-3)GlcNAc(b1-6)GalNAc
# Procedure, shortened: as §1
# [22] = target: Gal(b1-3)GlcNAc(b1-6)[Gal(b1-3)]GalNAc
# Procedure, shortened: as §1
# Gal(b1-3)GlcNAc6S = target: Gal(b1-3)GlcNAc6S
# Procedure, shortened: as §1
# [23] = target: Gal(b1-3)[Fuc(a1-4)]GlcNAc
# Procedure, shortened: as §1
# [24] = target: Gal(b1-3)[Fuc(a1-4)]GlcNAc(b1-2)Man
# Procedure, shortened: as §1
# [25] = target: Gal(b1-3)[Fuc(a1-4)]GlcNAc(b1-2)Man(a1-3)[Gal(b1-3)[Fuc(a1-4)]GlcNAc(b1-2)Man(a1-6)]Man(b1-4)GlcNAc(b1-4)[Fuc(a1-6)]GlcNAc
# Procedure, shortened: as §1
# [26] = target: Gal(b1-3)[Fuc(a1-4)]GlcNAc(b1-3)Gal(b1-3)[Fuc(a1-4)]GlcNAc
# Procedure, shortened: as §1
# [27] = target: Gal(b1-3)[Fuc(a1-4)]GlcNAc(b1-3)Gal(b1-4)[Fuc(a1-3)]GlcNAc
# Procedure, shortened: as §1
# [28] = target: Gal(b1-3)[Fuc(a1-4)]GlcNAc(b1-6)GalNAc
# Procedure, shortened: as §1
# [29] = target: Gal(b1-3)[GlcNAc(b1-6)]GalNAc
# Procedure, shortened: as §1
# [30] = target: Gal(b1-3)[Neu5Ac(a2-6)]GalNAc
# Procedure, shortened: as §1
# [31] = target: Gal(b1-3)[Neu5Ac(a2-6)]GlcNAc(b1-4)Gal(b1-4)Glc
# Procedure, shortened: as §1
# [32] = target: Gal(b1-3)[Neu5Ac(b2-6)]GalNAc
# Procedure, shortened: as §1
# Gal(b1-4)Gal = target: Gal(b1-4)Gal
# Procedure, shortened: as §1
# [33] = target: Gal(b1-4)GalNAc(a1-3)[Fuc(a1-2)]Gal(b1-4)GlcNAc
# Procedure, shortened: as §1
# [34] = target: Gal(b1-4)GalNAc(b1-3)[Fuc(a1-2)]Gal(b1-4)GlcNAc
# Procedure, shortened: as §1
binder,measurement,setting,value
B1,glycan array binding signal (z-score),[1],-0.745
same,glycan array binding signal (z-score),[2],0.437
same,glycan array binding signal (z-score),[3],-0.428
same,glycan array binding signal (z-score),Gal(b1-3)GlcNAc,-0.664
same,glycan array binding signal (z-score),[4],-1.02
same,glycan array binding signal (z-score),[5],-0.85
same,glycan array binding signal (z-score),Gal(b1-3)GlcNAc(b1-2)Man,0.601
same,glycan array binding signal (z-score),[6],3.77
same,glycan array binding signal (z-score),[7],0.143
same,glycan array binding signal (z-score),[8],0.252
same,glycan array binding signal (z-score),[9],0.113
same,glycan array binding signal (z-score),[10],-0.653
same,glycan array binding signal (z-score),[11],0.105
same,glycan array binding signal (z-score),[12],-0.661
same,glycan array binding signal (z-score),[13],1.6
same,glycan array binding signal (z-score),[14],-0.16
same,glycan array binding signal (z-score),[15],-0.127
same,glycan array binding signal (z-score),[16],0.879
same,glycan array binding signal (z-score),[17],0.799
same,glycan array binding signal (z-score),[18],12.8
same,glycan array binding signal (z-score),[19],-0.114
same,glycan array binding signal (z-score),[20],-0.02
same,glycan array binding signal (z-score),[21],0.299
same,glycan array binding signal (z-score),[22],0.989
same,glycan array binding signal (z-score),Gal(b1-3)GlcNAc6S,-0.822
same,glycan array binding signal (z-score),[23],-0.224
same,glycan array binding signal (z-score),[24],0.017
same,glycan array binding signal (z-score),[25],1.1
same,glycan array binding signal (z-score),[26],-0.572
same,glycan array binding signal (z-score),[27],0.392
same,glycan array binding signal (z-score),[28],0.047
same,glycan array binding signal (z-score),[29],-0.541
same,glycan array binding signal (z-score),[30],-0.208
same,glycan array binding signal (z-score),[31],-0.044
same,glycan array binding signal (z-score),[32],-0.578
same,glycan array binding signal (z-score),Gal(b1-4)Gal,-0.849
same,glycan array binding signal (z-score),[33],-1.68
same,glycan array binding signal (z-score),[34],-1.21

# Not a retest: an excerpt of the list.
binder,measurement,setting,value
B1,glycan array binding signal (z-score),[3],-0.428
same,glycan array binding signal (z-score),Gal(b1-3)GlcNAc,-0.664
same,glycan array binding signal (z-score),[4],-1.02
same,glycan array binding signal (z-score),[5],-0.85
same,glycan array binding signal (z-score),Gal(b1-3)GlcNAc(b1-2)Man,0.601
same,glycan array binding signal (z-score),[6],3.77
same,glycan array binding signal (z-score),[7],0.143
same,glycan array binding signal (z-score),[8],0.252
same,glycan array binding signal (z-score),[9],0.113
